{"source": "paper PMC3126838", "binders": {"B1": {"name": "C-Nop8p (Nop8p residues 221-484) fused to the Gal4p transcription activation domain (domain or fragment, UniProt Q08287 221-484)", "chain": "VSKDENVCSGEMDSDENMSEEEKEKNNVILNDLLKDFDFDKPMTLNDSDEELLTEQRKGEEEEEEEEEKEVNAPEYENVNKTKDQSTLPQEKPEERKEQDEGDGQEDNEFIPTFTKEIGQGTISNTETLRNLFNPNEAEPVSQFKLIEDSDNDIDHAKDVDVNQLEEEVSKSSDTLGLTSAPVPHVSRDKDNKNFLFFPHLQSPFLVGQTQLSKVRAPGRETMLSNWDEEFWANRGNWTRDMRRKMKDALKHRKRKQSKSGLLL"}, "B2": {"name": "Nop8p as a two-hybrid fusion (protein, UniProt Q08287 1-484)", "chain": "MDSVIQKRIFVGNIFHNADDCYSELLDRFGKFGDCQDFQFEKHNHFAFIDIRFNDEADFNKLRKSFNNVKFKGNILKVDEAKPNWESTWAVQHAKDLKEDIILNAKMKKKNWQHYKKMENVAKSWKDHKEVIAGRMREAPRKRSQLRNITFRINVNGSLKVYKCYKTKLWGYERNKELNDLVYKFTNNFWKNGYNHIVDRLDYSRAVKTVRFKNGLKQLTVSKDENVCSGEMDSDENMSEEEKEKNNVILNDLLKDFDFDKPMTLNDSDEELLTEQRKGEEEEEEEEEKEVNAPEYENVNKTKDQSTLPQEKPEERKEQDEGDGQEDNEFIPTFTKEIGQGTISNTETLRNLFNPNEAEPVSQFKLIEDSDNDIDHAKDVDVNQLEEEVSKSSDTLGLTSAPVPHVSRDKDNKNFLFFPHLQSPFLVGQTQLSKVRAPGRETMLSNWDEEFWANRGNWTRDMRRKMKDALKHRKRKQSKSGLLL"}, "B3": {"name": "Mtr3p (protein, UniProt P48240 1-250)", "chain": "MNVQDRRRLLGPAAAKPMAFSNTTTHVPEKKSTDLTPKGNESEQELSLHTGFIENCNGSALVEARSLGHQTSLITAVYGPRSIRGSFTSQGTISIQLKNGLLEKYNTNELKEVSSFLMGIFNSVVNLSRYPKSGIDIFVYLTYDKDLTNNPQDDDSQSKMMSSQISSLIPHCITSITLALADAGIELVDMAGAGEANGTVVSFIKNGEEIVGFWKDDGDDEDLLECLDRCKEQYNRYRDLMISCLMNQET"}, "B4": {"name": "Nop1p, P15646 1-327 (protein)", "chain": "MSFRPGSRGGSRGGSRGGFGGRGGSRGGARGGSRGGFGGRGGSRGGARGGSRGGFGGRGGSRGGARGGSRGGRGGAAGGARGGAKVVIEPHRHAGVYIARGKEDLLVTKNMAPGESVYGEKRISVEEPSKEDGVPPTKVEYRVWNPFRSKLAAGIMGGLDELFIAPGKKVLYLGAASGTSVSHVSDVVGPEGVVYAVEFSHRPGRELISMAKKRPNIIPIIEDARHPQKYRMLIGMVDCVFADVAQPDQARIIALNSHMFLKDQGGVVISIKANCIDSTVDAETVFAREVQKLREERIKPLEQLTLEPYERDHCIVVGRYMRSGLKK"}}, "key": {"[1]": {"target": "T1, Nip7p fused to the lexA DNA binding domain (S. cerevisiae) (UniProt Q08962)", "T1 sequence": "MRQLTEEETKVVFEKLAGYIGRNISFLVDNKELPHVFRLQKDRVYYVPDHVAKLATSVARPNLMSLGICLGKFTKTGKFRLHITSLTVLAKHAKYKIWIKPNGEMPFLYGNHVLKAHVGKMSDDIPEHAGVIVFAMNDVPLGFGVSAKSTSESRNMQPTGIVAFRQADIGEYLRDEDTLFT", "test": "two-hybrid; Nop8p truncation mutants fused to Gal4p AD, Nip7p fused to lexA BD; host strain L40; reporters HIS3 (-His, 1 mM 3-aminotriazole) and lacZ (X-Gal)"}, "[2]": {"target": "T2, Trf4p as a two-hybrid fusion (S. cerevisiae) (UniProt P53632)", "T2 sequence": "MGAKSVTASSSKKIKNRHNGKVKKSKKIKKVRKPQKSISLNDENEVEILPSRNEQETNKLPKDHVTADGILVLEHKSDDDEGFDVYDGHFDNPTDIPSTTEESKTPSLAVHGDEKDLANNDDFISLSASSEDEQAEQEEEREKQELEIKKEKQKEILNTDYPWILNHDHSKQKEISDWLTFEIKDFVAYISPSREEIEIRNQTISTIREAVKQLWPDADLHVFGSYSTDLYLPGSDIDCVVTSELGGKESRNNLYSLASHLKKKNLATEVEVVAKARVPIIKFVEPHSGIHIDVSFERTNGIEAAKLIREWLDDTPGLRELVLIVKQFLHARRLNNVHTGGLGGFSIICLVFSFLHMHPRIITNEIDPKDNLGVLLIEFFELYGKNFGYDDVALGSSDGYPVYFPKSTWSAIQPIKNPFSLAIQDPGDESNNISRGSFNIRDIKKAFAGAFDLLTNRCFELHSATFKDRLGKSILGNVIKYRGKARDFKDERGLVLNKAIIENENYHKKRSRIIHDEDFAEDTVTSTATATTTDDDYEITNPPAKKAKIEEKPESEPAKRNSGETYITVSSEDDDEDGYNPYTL", "test": "two-hybrid; data not shown; Nop8p tested against TRAMP proteins"}, "[3]": {"target": "T3, Rrp6p as a two-hybrid fusion (S. cerevisiae) (UniProt Q12149)", "T3 sequence": "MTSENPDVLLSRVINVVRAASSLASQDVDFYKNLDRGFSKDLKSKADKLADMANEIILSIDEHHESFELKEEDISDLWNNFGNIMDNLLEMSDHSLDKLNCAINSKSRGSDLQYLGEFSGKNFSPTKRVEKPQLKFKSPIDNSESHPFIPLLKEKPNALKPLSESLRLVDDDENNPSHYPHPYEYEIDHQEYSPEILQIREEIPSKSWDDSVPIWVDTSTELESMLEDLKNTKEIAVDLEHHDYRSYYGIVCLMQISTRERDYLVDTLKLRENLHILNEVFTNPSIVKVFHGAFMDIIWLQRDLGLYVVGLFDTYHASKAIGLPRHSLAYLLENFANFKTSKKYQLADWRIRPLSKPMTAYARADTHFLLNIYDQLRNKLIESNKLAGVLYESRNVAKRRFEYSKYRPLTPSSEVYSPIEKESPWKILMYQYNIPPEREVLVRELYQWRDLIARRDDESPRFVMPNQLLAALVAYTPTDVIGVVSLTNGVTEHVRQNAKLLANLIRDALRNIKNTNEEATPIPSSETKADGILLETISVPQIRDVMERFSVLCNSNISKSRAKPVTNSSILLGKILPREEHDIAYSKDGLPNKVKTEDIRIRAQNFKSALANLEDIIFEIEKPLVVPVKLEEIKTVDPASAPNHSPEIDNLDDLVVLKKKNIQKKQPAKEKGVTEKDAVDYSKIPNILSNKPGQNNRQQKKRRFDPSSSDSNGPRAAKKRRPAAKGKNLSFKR", "test": "two-hybrid; data not shown; Nop8p tested against exosome subunits"}, "[4]": {"target": "T4, TAP-Rrp43p (S. cerevisiae) (UniProt P25359)", "T4 sequence": "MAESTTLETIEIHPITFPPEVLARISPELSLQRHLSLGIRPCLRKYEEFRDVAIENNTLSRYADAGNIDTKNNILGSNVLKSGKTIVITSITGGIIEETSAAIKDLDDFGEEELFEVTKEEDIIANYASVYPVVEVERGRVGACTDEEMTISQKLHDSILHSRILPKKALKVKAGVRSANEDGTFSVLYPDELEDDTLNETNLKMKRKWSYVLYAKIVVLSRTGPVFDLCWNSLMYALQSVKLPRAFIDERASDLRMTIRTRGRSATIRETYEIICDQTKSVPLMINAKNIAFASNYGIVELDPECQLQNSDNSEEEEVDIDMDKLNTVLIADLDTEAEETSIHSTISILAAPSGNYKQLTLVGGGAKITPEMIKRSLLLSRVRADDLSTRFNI", "test": "co-IP; TAP-tagged protein from yeast total extract on IgG-Sepharose, 2 h at 4°C, washed with TMN buffer (10 mM Tris pH 7.6, 100 mM NaCl, 5 mM MgCl2, 0.1% Nonidet P-40), eluted with TEV protease; immunoblot for a second subunit"}, "[5]": {"target": "T5, TAP-Nop58p (S. cerevisiae), Q12499", "T5 chain": "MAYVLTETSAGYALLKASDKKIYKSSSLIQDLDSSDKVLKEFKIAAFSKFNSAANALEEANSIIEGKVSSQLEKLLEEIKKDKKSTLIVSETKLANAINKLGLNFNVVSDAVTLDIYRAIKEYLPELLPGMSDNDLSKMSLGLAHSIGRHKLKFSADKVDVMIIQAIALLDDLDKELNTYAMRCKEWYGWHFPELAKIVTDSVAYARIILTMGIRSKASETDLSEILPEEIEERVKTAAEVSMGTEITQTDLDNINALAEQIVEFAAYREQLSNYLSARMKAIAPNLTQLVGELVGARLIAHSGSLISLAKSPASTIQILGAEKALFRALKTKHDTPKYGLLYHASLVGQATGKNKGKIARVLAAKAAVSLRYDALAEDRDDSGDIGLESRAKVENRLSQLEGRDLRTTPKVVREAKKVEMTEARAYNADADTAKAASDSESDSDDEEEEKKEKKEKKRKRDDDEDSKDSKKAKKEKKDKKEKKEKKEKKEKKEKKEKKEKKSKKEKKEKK", "test": "co-IP; TAP-tagged protein from yeast total extract on IgG-Sepharose, 2 h at 4°C, washed with TMN buffer (10 mM Tris pH 7.6, 100 mM NaCl, 5 mM MgCl2, 0.1% Nonidet P-40), eluted with TEV protease; immunoblot for a second subunit", "settings": "remark: other sources report otherwise"}}, "note": "These are yes or no findings as the source states them, for the method shown. For some assays here: Binding seen in cells or lysates may run through a third protein. Some binding calls cover weakened binding; strength is not graded here. For some assays here: Sequences can lack the tags named with a protein."}
{"binder": "B1", "values": [{"measurement": "binding", "setting": "[1]", "value": "binds"}]}
{"binder": "B2", "values": [{"measurement": "binding", "setting": "[2]", "value": "binds weakly"}, {"measurement": "binding", "setting": "[3]", "value": "binds"}]}
{"binder": "B3", "values": [{"measurement": "binding", "setting": "[4]", "value": "binds"}]}
{"binder": "B4", "values": [{"measurement": "binding", "setting": "[5]", "value": "binds"}]}
